The values below come from PMC10611921.

Chains of the proteins cited; added tags and fusions are not shown.
UniProt P25490, whole entry: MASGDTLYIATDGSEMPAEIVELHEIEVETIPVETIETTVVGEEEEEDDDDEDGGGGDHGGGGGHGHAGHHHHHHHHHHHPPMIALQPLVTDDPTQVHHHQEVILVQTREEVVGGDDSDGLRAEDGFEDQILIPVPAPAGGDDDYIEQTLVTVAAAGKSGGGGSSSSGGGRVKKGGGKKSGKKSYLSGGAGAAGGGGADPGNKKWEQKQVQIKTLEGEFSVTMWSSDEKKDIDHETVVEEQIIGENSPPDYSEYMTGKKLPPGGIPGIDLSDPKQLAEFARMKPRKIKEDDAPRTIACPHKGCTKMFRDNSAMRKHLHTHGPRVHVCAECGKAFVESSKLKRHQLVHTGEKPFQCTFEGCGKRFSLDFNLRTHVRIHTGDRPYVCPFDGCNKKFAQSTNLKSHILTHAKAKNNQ

Construct, isoform or probe ends are uncertain for at least one entry. A weaker result is weaker than the reference pair of the same experiment.

The data set addresses YY1 (UniProt P25490). Kind of data set: EMSA. The settings on record: faint non-specific band of large oligomers, lost as FOXP2 FHD rises, no complex on the small control gel (Figure 9B); EMSA: 0.5 uM DNA, 20% (v/v) of binding buffer (10 mM HEPES pH 7.5, 1 mM MgCl2, 100 mM KCl, 10% glycerol, 0.1 mg/ml BSA), protein from 100 mM NaCl, overnight at 4 C; recombinant protein; protein details: N-terminal His6. (In general: Mobility shift assays separate free from complexed probe on a gel.)

As to “TTTGATTGTTTACTTTGTTC (double strand) [CNTNAP2 DNA]”, the binding result is “binds more weakly”.
